Assay results taken from paper PMC6021247.
Results are given in words; binding and its absence hold for the method and conditions named. Binding seen in cells or lysates may run through a third protein. Sequences can lack the tags named with a protein.

Target: T1, rabbit APOBEC1 fused to GFP (rA1-GFP) (rabbit) (UniProt P47855)
T1 sequence: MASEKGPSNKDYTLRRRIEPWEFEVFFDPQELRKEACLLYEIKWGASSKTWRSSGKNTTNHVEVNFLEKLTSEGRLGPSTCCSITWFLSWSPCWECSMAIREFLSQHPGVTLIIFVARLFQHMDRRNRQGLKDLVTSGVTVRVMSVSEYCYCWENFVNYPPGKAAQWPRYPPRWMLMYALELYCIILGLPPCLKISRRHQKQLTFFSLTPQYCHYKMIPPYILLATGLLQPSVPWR
Experiment: FRET or BRET; flow cytometry-based FRET (FRET-FACS); HEK-293T cells 48 hours after co-transfection of a Cherry-fusion and a GFP-fusion plasmid; percentage of FRET+ cells gated on Cherry+ and GFP+ cells

binding: no binding
Substance: rabbit APOBEC3A fused to Cherry (rA3A-Cherry) (enzyme)
